Laboratory results as given in PubChem BioAssay AID445 (National Center for Advancing Translational Sciences (NCATS), 2006).
The other results are listed elsewhere or left out. Shown are side measurements of this screen, not its main read-out; they come without a call. Compounds called inactive in the main read-out are mostly missing here. Words in brackets tell the shape of the fitted curve; partial curves, single points and poor fits give uncertain potencies.

Experiment: IkB Signaling
Conditions: ABC-DLBCL IkBa-CBG/CBR dual luciferase ratio (green luciferase fused to IkBa over red control in OCI-Ly3 lymphoma cells), 4 h
Procedure, shortened: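 In this assay, an IκBα–CBG68 fusion accumulates when IKK-driven degradation is blocked; native CBR normalizes for cell number. OCI-Ly3 cells were treated 4 h with compound and doxycycline, then green and red light read after Chroma-Glo addition.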

[1] = measured here: control luc red channel unless noted

## CCOc1ccc2nc(N(Cc3cccnc3)C(=O)C3CCCCC3)sc2c1
[1]
  AC50: 39.8 µM [falling, single point]

## Cc1cccc(N2CCN(C(=O)c3oc(=O)c4ccccc4c3-c3ccccc3)CC2C)c1 (stereo not drawn)
[1]
  AC50: 7.94 µM [falling, full curve, poor fit]

## COc1ccc(Cn2c(CCC(=O)Nc3ccc(C)cc3C)nc3cccnc32)cc1
[1]
  AC50: 7.94 µM [falling, partial curve, poor fit]

## CCCCOc1cc(C[C@@H]2CNC(=O)N2)ccc1OC
[1]
  AC50: 10 µM [rising, full curve] [measured here: IkB-luc green channel]

## Cc1ccc2c(nc3s/c(=C/c4cccs4)c(=O)n32)c1C
[1]
  AC50: 0.126 µM [falling, full curve, poor fit]

## Cc1oc2ccc(O)c(CN3CCN(C)CC3)c2c1C(=O)Nc1ccccc1
[1]
  AC50: 3.16 µM [falling, partial curve, poor fit]

## Cc1cccc(CSc2nc(=O)c3c(n2C)NC(=O)CC3c2cc(F)cc(F)c2)c1 (stereo not drawn)
[1]
  AC50: 20 µM [falling, single point]

## CCOC(=O)C1=C(CN2CCN(c3ccc(F)cc3)CC2)NC(=O)NC1c1cccs1 (stereo not drawn)
[1]
  AC50: 39.8 µM [falling, single point]

## CCc1ccccc1NC(=O)CSc1nnc(-c2ccc(OC)cc2)s1
[1]
  AC50: 20 µM [rising, partial curve, poor fit]

## CCOc1cccc2cc(C(=O)NCc3cccnc3)c(=O)oc12
[1]
  AC50: 2.51 µM [falling, full curve]

## Cc1cccn2c(N)c(-c3ccccc3)nc12
[1]
  AC50: 20 µM [falling, partial curve]

## CN(C)c1cccc(C(=O)Nc2nc3ccc(S(=O)(=O)N4CCCC4)cc3s2)c1
[1]
  AC50: 15.8 µM [falling, partial curve]

## O=C(Nc1ccc2c(c1)OCCO2)C1CCCN(S(=O)(=O)Cc2ccccc2)C1 (stereo not drawn)
[1]
  AC50: 25.1 µM [falling, partial curve]

## CCSc1ncc(Cl)c(C(=O)Nc2nc3ccc(Cl)cc3s2)n1
[1]
  AC50: 2.51 µM [rising, partial curve]

## COc1ccccc1-c1nnc(SCC(=O)NCc2c(C)c(Cl)cc(C(C)C)c2O)o1
Measured here: IkB-luc green channel
  AC50: 20 µM [falling, partial curve, poor fit]
Measured here: control luc red channel
  AC50: 25.1 µM [falling, partial curve]

## O=C(Cn1c(=O)nc(-c2ccccc2)c2ccccc21)N1CCN(c2ccc(F)cc2)CC1
[1]
  AC50: 39.8 µM [falling, single point]

## COc1cc(OC)c(NC2=C(c3ccc(C(F)(F)F)cc3)C(=O)c3ccccc32)cc1Cl
[1]
  AC50: 6.31 µM [falling, partial curve]

## CC(C)Oc1ccccc1NC(=O)CSc1nccn1C
[1]
  AC50: 39.8 µM [falling, single point]

## O=C(O)CSc1nc2ccc(NC(=O)COc3ccc(Cl)cc3)cc2s1
[1]
  AC50: 25.1 µM [falling, partial curve]

## C#CCn1c(=O)n(-c2cccc(Cl)c2C)c(=O)c2c3c(sc21)CN(C(C)=O)CC3
[1]
  AC50: 10 µM [falling, partial curve]

## Cc1ccc(C)c(N2CCN(CCCNC(=O)c3cnn(-c4ccc(F)cc4)c3C3CCN(C(=O)OC(C)(C)C)CC3)CC2)c1
[1]
  AC50: 10 µM [falling, partial curve]

## CC(C)C(=O)Nc1nc2c(s1)CC(C(C)(C)C)CC2 (stereo not drawn)
[1]
  AC50: 0.316 µM [rising, full curve]

## COc1ccc(-c2cnc(C)o2)cc1S(=O)(=O)Nc1ccc(OC(F)(F)F)cc1
[1]
  AC50: 20 µM [falling, partial curve]

## O=C(COc1ccccc1)Nc1cccc(-c2nnc(-c3ccccc3)o2)c1
[1]
  AC50: 10 µM [falling, partial curve]

## CN(C(=O)CSc1nnc(COc2ccccc2)o1)c1ccccc1
[1]
  AC50: 15.8 µM [falling, partial curve]

## CCOc1ccc(OCC)c(NC(=O)c2cc3ccccn3n2)c1
[1]
  AC50: 31.6 µM [falling, single point]

## CCOC(=O)c1c(NC(=O)CSc2nnnn2C)sc(C)c1-c1ccc(C)cc1
[1]
  AC50: 25.1 µM [falling, partial curve]

## Cn1c(=O)c2c(nc(NCCCO)n2Cc2cccc(Br)c2)n(C)c1=O
[1]
  AC50: 25.1 µM [falling, partial curve]

## O=C(Nc1sc2c(c1C(=O)Nc1ccccc1)CCC2)c1ccc(Br)cc1
[1]
  AC50: 0.501 µM [falling, full curve]

## COC(=O)c1ccc(NC(=O)CSc2nnc3c4ccccc4n(C(C)C)c3n2)cc1
[1]
  AC50: 25.1 µM [falling, partial curve]

## CN1CCN(Cc2nc3c(c(=O)n(C)c(=O)n3C)n2Cc2ccccc2Cl)CC1
[1]
  AC50: 15.8 µM [falling, partial curve]

## Cc1ccc2c(=O)c(C(=O)c3ccc(F)cc3)cn(CC(=O)Nc3ccc4c(c3)OCCO4)c2n1
[1]
  AC50: 25.1 µM [falling, single point]

## Cc1ccccc1-c1cc(-c2ccccc2O)n[nH]1
[1]
  AC50: 15.8 µM [falling, partial curve, poor fit]

## O=C(CSc1nccn1C1CCCC1)Nc1cc(C(F)(F)F)ccc1Cl
[1]
  AC50: 1 µM [falling, full curve, poor fit]

## O=C(c1ccc2c(c1)N(Cc1ccccc1)C(=O)c1ccccc1S2(=O)=O)N1CCc2ccccc21
[1]
  AC50: 12.6 µM [falling, partial curve, poor fit]

## CCCNC(=O)CN1C(=O)COc2ccc(S(=O)(=O)N3CCC(C)CC3)cc21
[1]
  AC50: 39.8 µM [falling, single point]

## Cc1c(NC(=O)C(C)(C)Oc2ccc(Cl)cc2)cccc1-c1nc2ccccc2o1
[1]
  AC50: 10 µM [falling, partial curve]

## COc1cc2cc(CNc3ccccc3)c(=O)n(CC(=O)Nc3ccc(C)c(Cl)c3)c2cc1OC
[1]
  AC50: 10 µM [falling, partial curve]

## Cc1ccc(C)c(NC(=O)c2nnn(Cc3ccccc3)c2N)c1
[1]
  AC50: 15.8 µM [falling, partial curve]

## COCCN(Cc1ccco1)C(=O)c1cc2c(=O)[nH]c3ccc(C)cc3c2s1
[1]
  AC50: 39.8 µM [falling, single point]

## COC(=O)c1ccc(NC(=O)CCCC(=O)OCC(=O)c2ccc(Cl)cc2)cc1
[1]
  AC50: 15.8 µM [falling, single point]

## COc1ccc(CCNC(=O)c2cccc(Nc3nc4ccccc4nc3-n3nc(C)cc3C)c2)cc1OC
[1]
  AC50: 5.01 µM [falling, partial curve]

## CCOc1c(Br)cc(C2CC(=O)Nc3cc4c(cc32)OCO4)cc1OC (stereo not drawn)
[1]
  AC50: 39.8 µM [falling, partial curve]

## COc1ccc(C2C=C(c3ccc(Cl)cc3)Nc3nc(-c4ccc(Cl)cc4)nn32)cc1 (stereo not drawn)
[1]
  AC50: 15.8 µM [falling, partial curve]

## CCOC(=O)Cn1c(=O)oc2cc(S(=O)(=O)N3CCN(c4cccc(C)c4)C(C)C3)ccc21 (stereo not drawn)
[1]
  AC50: 10 µM [falling, partial curve]

## Cc1nc(-c2ccc(NC(=O)c3cccs3)cc2)cs1
[1]
  AC50: 0.501 µM [falling, full curve]

## CC1=C(C(=O)OCc2ccc3c(c2)OCO3)C(c2ccc(F)cc2)NC(=O)N1 (stereo not drawn)
[1]
  AC50: 12.6 µM [falling, partial curve]

## CCC(=O)c1ccc(OCC(O)CN2CCN(c3cccc(C(F)(F)F)c3)CC2)cc1 (stereo not drawn)
[1]
  AC50: 15.8 µM [falling, partial curve]

## O=C1CCSC2(C(=O)N(Cc3ccc(F)cc3)c3ccccc32)N1c1ccc(Cl)cc1 (stereo not drawn)
[1]
  AC50: 15.8 µM [falling, partial curve]

## COc1ccc(Cl)cc1NC(=O)N1CCN(Cc2cc(=O)n3nc(-c4ccccc4)sc3n2)CC1
[1]
  AC50: 12.6 µM [falling, partial curve]

## Cc1nnc(NC(=O)C2COc3ccccc3O2)s1 (stereo not drawn)
[1]
  AC50: 12.6 µM [falling, partial curve]

## COc1ccc(C(=O)COC(=O)c2cc(-c3cccs3)nc3ccccc23)cc1
[1]
  AC50: 31.6 µM [falling, partial curve]

## Cc1cccc(N2CCN(S(=O)(=O)c3cc(C(=O)Nc4ccc(Oc5ccccc5)cc4)ccc3F)CC2)c1C
[1]
  AC50: 5.01 µM [falling, partial curve]

## O=c1oc2ccccc2c(N2CCN(c3ccc(F)cc3)CC2)c1CN1CCCC1
[1]
  AC50: 15.8 µM [falling, partial curve]

## C=CCn1cnc2c(NCc3ccccc3)ncnc21
[1]
  AC50: 12.6 µM [falling, partial curve]

## Cc1ccccc1NC(=O)Cn1c(=O)n(CCc2ccccc2)c(=O)c2ccccc21
[1]
  AC50: 10 µM [falling, partial curve]

## COc1ccc(-c2nnc(SCC(=O)c3cc(C)n(Cc4cccs4)c3C)o2)cc1
[1]
  AC50: 39.8 µM [rising, single point]

## CCc1nn2c(=O)cc(COC(=O)c3ccccc3NC(=O)COc3ccc(C)c(C)c3)nc2s1
[1]
  AC50: 5.01 µM [falling, partial curve]

## CCCCn1cc(S(=O)(=O)c2cc(C)ccc2C)c(=O)c2cc(F)c(F)cc21
[1]
  AC50: 25.1 µM [falling, single point]

## COc1ccc(Br)cc1[C@@H]1Nc2ccc(C(=O)O)cc2[C@@H]2C=CC[C@@H]21
[1]
  AC50: 10 µM [falling, partial curve]

## Cc1c(Cl)cccc1-n1ncc(C(=O)NC2CCCCC2)c1C1CCN(C(=O)OC(C)(C)C)CC1
[1]
  AC50: 15.8 µM [falling, partial curve]

## CC(=O)OCC(=O)[C@@]12OC(C)(C)O[C@@H]1C[C@H]1[C@H]3C[C@H](F)C4=CC(=O)C=C[C@@]4(C)[C@]3(F)[C@H](O)C[C@@]12C
[1]
  AC50: 3.16 nM [rising, full curve, poor fit] [measured here: IkB-luc green channel]
